Measurements: patent US9550752B2, “Triazolinthione derivatives” (priority 2013, dated 2017)
Some entries share one result that the patent states for a list of compounds.

Columns and labels:
Sphaerotheca fuliginea = assay: In vivo preventive test on Sphaerotheca fuliginea (powdery mildew on cucurbits); settings: gherkin plants, preventive spray, evaluated 15 days after inoculation
Uromyces appendiculatus = assay: In vivo preventive test on Uromyces appendiculatus (bean rust); settings: bean plants, preventive spray, evaluated 11 days after inoculation
Septoria tritici = assay: In vivo preventive test on Septoria tritici (leaf spot on wheat); settings: wheat plants, preventive spray, evaluated 24 days after inoculation
Puccinia recondita = assay: In vivo preventive test on Puccinia recondita (brown rust on wheat); settings: wheat plants, preventive spray, evaluated 11 days after inoculation
Pyrenophora teres = assay: In vivo preventive test on Pyrenophora teres (net blotch on barley); settings: 100 ppm of active ingredient; barley plants, preventive spray; evaluated 14 days after inoculation
Method: The young plants of barley are treated by spraying the active ingredient prepared as described above. Control plants are treated only with an aqueous solution of acetone/Dimethyl sulfoxide/tween®. After 24 hours, the plants are contaminated by spraying the leaves with an aqueous suspension of Pyrenophora teres spores.

[1] = system: Blumeria graminis f.sp. hordei; assay: Blumeria test (barley)/preventive; format: in vivo; settings: 500 ppm of active ingredient, preventive, evaluated 7 days after inoculation
[2] = system: Fusarium nivale (var. majus); assay: Fusarium nivale (var. majus)-test (wheat)/preventive; format: in vivo; settings: 500 ppm of active ingredient, preventive, evaluated 5 days after inoculation
Leptosphaeria nodorum = Leptosphaeria nodorum test (wheat)/preventive; format: in vivo; settings: 500 ppm of active ingredient, preventive, evaluated 8 days after inoculation
Phakopsora pachyrhizi = assay: Phakopsora test (soybeans)/preventive; format: in vivo; settings: 100 ppm of active ingredient, preventive, evaluated 7 days after inoculation
Venturia inaequalis = assay: Venturia test (apples)/preventive; format: in vivo; settings: 100 ppm of active ingredient, preventive, evaluated 10 days after inoculation

Measured: biological efficacy

OC(Cc1ccnc2ccccc12)(Cn1ncnc1S)C1(Cl)CC1 (centres unmarked) [Example I-12]
≥ 90%: Sphaerotheca fuliginea; 100 ppm of active ingredient | Uromyces appendiculatus; 100 ppm of active ingredient

OC(Cc1cc(Cl)nc(Cl)c1)(Cn1ncnc1S)C1(Cl)CC1 (centres unmarked) [Example I-8]
≥ 90%: Septoria tritici; 100 ppm of active ingredient | Sphaerotheca fuliginea; 100 ppm of active ingredient

OC(Cc1ccc2ccccc2n1)(Cn1ncnc1S)C1(Cl)CC1 (centres unmarked) [Example I-7]
≥ 90%: Uromyces appendiculatus; 100 ppm of active ingredient

OC(Cc1ccncc1Cl)(Cn1nc[nH]c1=S)C1(Cl)CC1 (centres unmarked) [Example I-3, 2-[2-(1-chlorocyclopropyl)-3-(3-chloropyridin-4-yl)-2-hydroxypropyl]-2,4-dihydro-3H-1,2,4-triazole-3-thione]
≥ 90%: Puccinia recondita; 100 ppm of active ingredient | Pyrenophora teres | Septoria tritici; 100 ppm of active ingredient | Sphaerotheca fuliginea; 100 ppm of active ingredient | Uromyces appendiculatus; 100 ppm of active ingredient | [1] | [2] | Leptosphaeria nodorum | Phakopsora pachyrhizi | Venturia inaequalis

CC(C)(C)C(O)(Cc1ccncc1Cl)Cn1ncnc1S (centres unmarked) [Example I-2]
≥ 90%: Puccinia recondita; 100 ppm of active ingredient | Pyrenophora teres | Sphaerotheca fuliginea; 100 ppm of active ingredient | Uromyces appendiculatus; 100 ppm of active ingredient | [1] | [2]

CC(CF)(CF)C(O)(Cc1ccncc1F)Cn1ncnc1S (centres unmarked) [Example I-22]
≥ 90%: Puccinia recondita; 500 ppm of active ingredient | Septoria tritici; 500 ppm of active ingredient | Sphaerotheca fuliginea; 500 ppm of active ingredient | Uromyces appendiculatus; 500 ppm of active ingredient | [2]
